{"source": "patent US20250268958A1", "about": "“COMMENSAL BACTERIA PROMOTE ENDOCRINE-RESISTANCE IN PROSTATE CANCER VIA ANDROGEN BIOSYNTHESIS” (FONDAZIONE PER L'ISTITUTO ONCOLOGICO DI RICERCA (IOR), priority 2021, published 2025)", "tested_on": "B. acidifaciens, R. gnavus and Ruminococcus sp. DSM_100440", "test": "Inhibition of bacterial steroid production", "type": "cell-based", "details": "10 or 100 μM, 48 h, anaerobic", "note": "At least one structure is not confirmed: it was looked up by name or label, or the drawing left a doubt."}
{"smiles": "C[C@]12CC[C@H](O)CC1=CC[C@@H]1[C@@H]2CC[C@]2(C)C(c3cccnc3)=CC[C@@H]12", "note": "[abiraterone]", "values": [{"measurement": "bacterial conversion of pregnenolone in DHEA", "value": "inhibited"}, {"measurement": "bacterial conversion of pregnenolone in testosterone", "value": "inhibited"}]}
